Record: PubChem BioAssay AID1259327 (Drosophila RNAi Screening Center, 2017)
The whole screen tested about 3,100 reagents; this is a part drawn at random. 378 of them (12%) were called active. 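Hits include both directions; z-score sign shows ATP rise or fall; raw luminescence values are not plate-normalised.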 Unmarked entries are inactive. The numbers tell different reagents against one gene apart. Names joined by + are all predicted targets of the reagent. Not given: the amount of reagent.

Aim: 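Knock-downs altering cellular ATP with no metal added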
Cells: Drosophila S2R+ cells
Reagent: long dsRNA against Drosophila genes
Duration: 5 days (water added on day 4, read one day later)
Treatment: water added as vehicle, no metal, one day before read-out
Detection: 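Total ATP measured by luciferase light, scaled to plate mean, duplicates averaged, then z-scored across plates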
Reading the numbers: ATP z-score: higher = more total ATP than typical wells; ATP luminescence: higher = more total ATP
Hit rule: 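a hit is any knock-down whose absolute ATP z-score is greater than 1.5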
Meaning of the calls: active = hit: ATP up or down; inactive = no clear ATP change

no.	Gene	reagent	ATP z-score, duplicate mean	ATP luminescence, replicate 1 (RLU)	ATP luminescence, replicate 2 (RLU)
1	Tmtc3	1	-0.817	6.61e5	6.26e5
2	CG32432	1	-0.514	8.78e5	7.81e5
3	Gr68a	1	0.755	1.03e6	9.63e5
4	Gr68a	2	0.436	5.34e5	4.83e5
5	Rab3-GEF	1	0.178	5.36e5	6.94e5
6	Rab3-GEF	2	0.156	7.38e5	7.83e5
7	Rab3-GEF	3	0.541	8.56e5	1.33e6
8	CG32687	1	0.247	7.35e5	8.06e5
9	CG32687	2	-1.81 (active)	6.02e5	5.77e5
10	CG32687	3	3.87 (active)	8.93e5	9.22e5
11	DAT	1	0.183	5.53e5	7.20e5
12	CG18609	1	1.71 (active)	7.19e5	8.30e5
13	CG18609	2	1.29	8.43e5	8.81e5
14	Cds + Setx	1	-1.49	9.11e5	1.02e6
15	Tmc	1	0.134	9.48e5	8.81e5
16	CG13014	1	-0.462	6.66e5	7.20e5
17	CG13014	2	1	5.56e5	7.75e5
18	Gr58a	1	0.0221	7.14e5	7.77e5
19	CG1907	1	0.418	7.33e5	7.64e5
20	Pen	1	2.01 (active)	6.38e5	5.99e5
21	Pen	2	0.622	6.33e5	6.31e5
22	AdipoR	1	0.431	7.78e5	7.23e5
23	AdipoR	2	-0.812	3.87e5	4.11e5

In a second layout: results already given.
{"Gene":"CG18609","reagent":1,"ATP z-score, duplicate mean":"1.71 (active)","ATP luminescence, replicate 1 (RLU)":7.19e5,"ATP luminescence, replicate 2 (RLU)":8.30e5}
{"Gene":"CG18609","reagent":2,"ATP z-score, duplicate mean":1.29,"ATP luminescence, replicate 1 (RLU)":8.43e5,"ATP luminescence, replicate 2 (RLU)":8.81e5}
{"Gene":"Cds + Setx","reagent":1,"ATP z-score, duplicate mean":-1.49,"ATP luminescence, replicate 1 (RLU)":9.11e5,"ATP luminescence, replicate 2 (RLU)":1.02e6}
{"Gene":"Tmc","reagent":1,"ATP z-score, duplicate mean":0.134,"ATP luminescence, replicate 1 (RLU)":9.48e5,"ATP luminescence, replicate 2 (RLU)":8.81e5}

The listing continues:
no.	Gene	reagent	ATP z-score, duplicate mean	ATP luminescence, replicate 1 (RLU)	ATP luminescence, replicate 2 (RLU)
24	NijC	1	0.682	3.56e5	7.69e5
25	NijC	2	0.789	1.05e6	8.01e5
26	Proc-R	1	-1.27	5.38e5	8.41e5
27	Proc-R	2	0.193	5.36e5	4.19e5
28	spict	1	0.222	4.84e5	5.06e5
29	spict	2	-0.829	4.39e5	3.59e5
30	Tsp5D	1	-0.226	5.52e5	7.00e5
31	Tsp5D	2	1.13	6.60e5	7.02e5
32	mthl4	1	-0.91	5.23e5	5.51e5
33	Scgbeta	1	0.124	3.17e5	7.45e5
34	CG5554	1	-0.24	7.09e5	6.93e5
35	CG5554	2	0.426	1.01e6	7.92e5
36	CG42594	1	0.041	6.06e5	1.02e6
37	CG42594	2	-0.128	7.08e5	8.97e5
38	CG3168	1	-1.82 (active)	5.43e5	4.94e5
39	CG3168	2	0.551	1.01e6	7.80e5
40	bark	1	-0.402	7.24e5	6.43e5
41	bark	2	1.1	1.14e6	9.00e5
42	Atpalpha	1	0.051	7.26e5	6.97e5
43	Atpalpha	2	-1.61 (active)	4.38e5	4.48e5
44	CG7255	1	0.106	7.66e5	7.18e5
45	CG2003	1	0.893	6.11e5	6.64e5
46	CG2003	2	0.651	4.27e5	6.29e5
47	CG1998	1	0.391	6.30e5	6.95e5
48	CG1998	2	-1.56 (active)	3.91e5	5.19e5
49	PIG-Q	1	1.05	7.33e5	6.95e5
50	PIG-Q	2	0.132	4.68e5	4.55e5
51	Jwa	1	0.996	5.14e5	5.86e5
52	Jwa	2	-0.57	9.84e5	1.02e6
53	CG12061	1	0.0437	7.54e5	7.40e5
54	CG12061	2	-0.705	3.51e5	5.13e5
55	CG43672 + CG43673	1	0.98	9.16e5	9.33e5
56	CG43672 + CG43673	2	-0.643	6.78e5	9.96e5
57	Ephrin	1	-1.04	5.56e5	6.09e5
58	Ephrin	2	0.22	5.06e5	4.31e5
59	Ephrin	3	0.503	4.85e5	4.87e5
60	PGRP-SC1a	1	1.27	7.07e5	7.63e5
61	TM4SF	1	0.124	6.71e5	8.19e5
62	TM4SF	2	0.183	4.61e5	4.95e5
63	Sc2	1	0.311	7.20e5	8.10e5
64	Sc2	2	-0.394	8.27e5	7.75e5
65	Tsp74F	1	0.178	9.50e5	8.90e5
66	sing + Axs	1	-0.293	6.78e5	7.45e5
67	sing + Axs	2	-0.462	4.58e5	4.34e5
68	CG2076	1	1.09	7.70e5	6.31e5
69	CG2076	2	-0.465	9.07e5	1.06e6
